PubChem BioAssay AID1259308 – NCATS | 2017
The whole screen tested about 59,000 reagents; below is a part drawn at random. About 1,510 of them (2.6%) count as active. 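Calls use total luciferase alone and ignore viability, so some active siRNAs may act by altering cell number.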 Reagents against one gene are numbered here. Further read-outs or replicates are left out here. No sequences are given here.

Screen: 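Candidate targets for better recombinant protein yield in mammalian cells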 (primary screen)
Cells: human HEK293 embryonic kidney cells stably expressing firefly luciferase (HEK-CMV-Luc2-Hygro)
Knock-down reagent: single siRNA against human genes, 0.8 pmol siRNA per well
Time to read-out: 72 h
Measured: 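Luciferase light (ONE-Glo) measured on one replicate plate set and viability (CellTiter-Glo) on the other, scaled to a negative control siRNA, with robust z-scores and luciferase per cell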
Scale: total luciferase, z-score and total luciferase, % of control: higher = more reporter protein produced
Active means: 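An siRNA counts as active if its total luciferase robust z-score exceeds 3; genes with two or more such siRNAs out of three were retested with fresh siRNAs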
Meaning of the calls: active = raised luciferase; inactive = no rise

SLC38A10 (GeneID 124565) #1 → total luciferase, z-score: -0.564; total luciferase, % of control: 70.7; activity call: inactive
SLC38A10 (GeneID 124565) #2 → total luciferase, z-score: 0.0363; total luciferase, % of control: 82.6; activity call: inactive
SLC38A10 (GeneID 124565) #3 → total luciferase, z-score: 4.58; total luciferase, % of control: 173; activity call: active
DSCC1 (GeneID 79075) #1 → total luciferase, z-score: -0.703; total luciferase, % of control: 67.9; activity call: inactive
DSCC1 (GeneID 79075) #2 → total luciferase, z-score: -0.371; total luciferase, % of control: 74.5; activity call: inactive
DSCC1 (GeneID 79075) #3 → total luciferase, z-score: 0.286; total luciferase, % of control: 87.6; activity call: inactive
MAD2L2 (GeneID 10459) #1 → total luciferase, z-score: 0.169; total luciferase, % of control: 85.2; activity call: inactive
MAD2L2 (GeneID 10459) #2 → total luciferase, z-score: 2.04; total luciferase, % of control: 122; activity call: inactive
MAD2L2 (GeneID 10459) #3 → total luciferase, z-score: 2.3; total luciferase, % of control: 128; activity call: inactive
RAB1AP2 (GeneID 643916) #1 → total luciferase, z-score: 2.27; total luciferase, % of control: 127; activity call: inactive
RAB1AP2 (GeneID 643916) #2 → total luciferase, z-score: 2.02; total luciferase, % of control: 122; activity call: inactive
RAB1AP2 (GeneID 643916) #3 → total luciferase, z-score: 1.45; total luciferase, % of control: 111; activity call: inactive
PRORP (GeneID 9692) #1 → total luciferase, z-score: -0.0188; total luciferase, % of control: 81.5; activity call: inactive
PRORP (GeneID 9692) #2 → total luciferase, z-score: 0.82; total luciferase, % of control: 98.2; activity call: inactive
PRORP (GeneID 9692) #3 → total luciferase, z-score: 0.778; total luciferase, % of control: 97.4; activity call: inactive
SLC17A3 (GeneID 10786) #1 → total luciferase, z-score: -0.42; total luciferase, % of control: 73.5; activity call: inactive
SLC17A3 (GeneID 10786) #2 → total luciferase, z-score: 0.389; total luciferase, % of control: 89.6; activity call: inactive
SLC17A3 (GeneID 10786) #3 → total luciferase, z-score: -2.19; total luciferase, % of control: 38.4; activity call: inactive
APOBEC3G (GeneID 60489) #1 → total luciferase, z-score: 2.34; total luciferase, % of control: 128; activity call: inactive
APOBEC3G (GeneID 60489) #2 → total luciferase, z-score: 3.3; total luciferase, % of control: 148; activity call: active
APOBEC3G (GeneID 60489) #3 → total luciferase, z-score: -1.37; total luciferase, % of control: 54.7; activity call: inactive

Already shown: entries from further up.
SLC38A10 (GeneID 124565) #3 → total luciferase, z-score: 4.58; total luciferase, % of control: 173; activity call: active
DSCC1 (GeneID 79075) #1 → total luciferase, z-score: -0.703; total luciferase, % of control: 67.9; activity call: inactive
DSCC1 (GeneID 79075) #2 → total luciferase, z-score: -0.371; total luciferase, % of control: 74.5; activity call: inactive
